Results published in PubChem BioAssay AID588590 (National Center for Advancing Translational Sciences (NCATS), 2011).
The campaign covered roughly 390,000 compounds. About 4,000 (1%) were called active. This list was built around the results that the source calls inconclusive (neither active nor inactive); the mix of calls is not that of the screen. Calls follow the shape of the dose curve; as a rule, active = well fitted inhibition curve with a large enough effect; inconclusive = small, poorly fitted or top-dose-only effect, or another doubt; inactive = no such curve, though single readings can be large or run the other way. A potency beside an inconclusive call is a rough fit, not a confirmed value.

Sequences of proteins named here, by UniProt entry; tags and fusion partners are left off. A change or cut given only in a name is not applied to a line headed by its entry.
UniProt Q9UNA4: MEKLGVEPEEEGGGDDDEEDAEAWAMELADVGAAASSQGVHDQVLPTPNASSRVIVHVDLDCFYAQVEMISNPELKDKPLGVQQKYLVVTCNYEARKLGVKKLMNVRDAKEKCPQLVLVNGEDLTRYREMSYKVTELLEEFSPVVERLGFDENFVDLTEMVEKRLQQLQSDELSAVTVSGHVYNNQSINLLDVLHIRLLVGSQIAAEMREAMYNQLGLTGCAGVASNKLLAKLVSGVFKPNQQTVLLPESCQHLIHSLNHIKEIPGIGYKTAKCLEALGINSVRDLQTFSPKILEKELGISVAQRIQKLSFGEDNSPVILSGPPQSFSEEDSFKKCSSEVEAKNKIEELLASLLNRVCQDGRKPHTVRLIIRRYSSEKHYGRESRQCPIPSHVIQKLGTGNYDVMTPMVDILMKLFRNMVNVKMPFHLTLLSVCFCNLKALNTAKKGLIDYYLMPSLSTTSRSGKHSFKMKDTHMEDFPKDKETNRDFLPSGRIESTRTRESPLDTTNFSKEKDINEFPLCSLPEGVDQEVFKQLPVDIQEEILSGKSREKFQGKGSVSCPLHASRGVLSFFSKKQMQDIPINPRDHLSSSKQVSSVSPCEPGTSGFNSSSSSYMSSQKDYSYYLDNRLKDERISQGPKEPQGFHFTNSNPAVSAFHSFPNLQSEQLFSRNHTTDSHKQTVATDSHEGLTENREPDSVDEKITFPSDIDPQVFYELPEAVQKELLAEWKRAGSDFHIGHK

Target: DNA polymerase iota (Homo sapiens) (UniProt Q9UNA4)
Assay: qHTS for Inhibitors of Polymerase Iota
Details: Pol iota fluorescent replication assay, 10 min; series mostly up to 115 µM
Summary of the method: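 Pol iota at 10 nM preincubated 15 min with compounds at room temperature; reaction started with fluorescent substrate, 50 nM final. Fluorescence read kinetically at 0 and 10 min; buffer-only wells as negative control.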
Potency is read from the fitted curve at half-maximal effect.

Row | SMILES | Potency
1 | CCN(CC)C(=O)N[C@H]1C[C@@H]2c3cccc4[nH]cc(c34)C[C@H]2N(C)C1 | inconclusive: 79.4 µM [inhibitor, partial curve, poor fit]
2 | CNC(C)C#Cc1ccc2oc3cc(C)c(C)cc3c(=O)c2c1 (configuration not stated) | active: 8.91 µM
3 | COC(=O)C1=C(N)OC(C)=C(C(C)=O)C12C(=O)N(C)c1ccccc12 (configuration not stated) | inconclusive: 100 µM [inhibitor, single point]
5 | Cc1nc2ccccc2c(=O)n1/N=C/c1cc(Br)cc(Br)c1O | inconclusive: 22.4 µM [inhibitor, single point]
6 | Cc1ccc(/C=C2\C(=O)NC(=S)N(c3ccccc3F)C2=O)s1 | inconclusive: 31.6 µM [inhibitor, full curve, poor fit]
7 | CC(=O)O[C@@]12CO[C@@H]1C[C@H](OC1OCC(O)C(O)C1O)[C@@]1(C)C(=O)[C@H](O)C3=C(C)[C@@H](OC(=O)[C@H](O)[C@@H](NC(=O)c4ccccc4)c4ccccc4)C[C@@](O)([C@@H](OC(=O)c4ccccc4)C12)C3(C)C (some centres not stated) | inconclusive: 89.1 µM [inhibitor, single point]
8 | S=c1[nH]nc(-c2ccco2)n1-c1cccc2ccccc12 | inconclusive: 6.31 µM [inhibitor, partial curve, poor fit]
9 | O=c1c2ccccc2nc(Cc2ccccc2)n1-c1ccccc1 | inconclusive: 100 µM [inhibitor, single point]
10 | O=C(c1ccco1)c1cn(Cc2ccccc2)c2ccccc12 | inconclusive: 2.51 µM [inhibitor, partial curve, poor fit]
11 | O=C(O)c1ccc2c(c1)C1C(Cl)C(Sc3ccccc3[N+](=O)[O-])CC1C(c1cccc([N+](=O)[O-])c1)N2 (configuration not stated) | inconclusive: 12.6 µM [inhibitor, full curve, poor fit]
12 | CC1(C)C(c2ccccc2)=NC(c2cccnc2)=[N+]1[O-] | inconclusive: 15.8 µM [inhibitor, partial curve, poor fit]
13 | CC1=Nc2cc(C(=O)N3CCC4(CC3)OCCO4)ccc2Sc2ccc(Cl)cc21 | inconclusive: 79.4 µM [inhibitor, partial curve, poor fit]
14 | O=C1NC(=S)N(c2ccc(Cl)cc2)C(=O)/C1=C/N1CCN(C(=O)c2ccco2)CC1 | inconclusive: 31.6 µM [inhibitor, partial curve, poor fit]
15 | CC[C@@H](CO)NC(=O)[C@@H]1C=C2c3cccc4c3c(cn4C)C[C@H]2N(C)C1 | inconclusive: 12.6 µM [inhibitor, full curve, poor fit]
16 | COc1ccccc1N1C(=O)NC(=O)/C(=C/c2ccc([N+](=O)[O-])s2)C1=O | inconclusive: 3.55 µM [inhibitor, full curve, poor fit]
17 | CCCNC(=O)c1c(N)n(Cc2ccco2)c2nc3ccccc3nc12 | inconclusive: 15.8 µM [inhibitor, full curve, poor fit]
18 | Nc1ccncc1Cl | inconclusive: 0.631 µM [inhibitor, full curve, poor fit]
19 | Oc1c(Br)cc(Br)cc1CN1CCN(Cc2ccccc2)CC1 | inconclusive: 31.6 µM [inhibitor, single point]

7 structures out of the list, arranged by number of heavy atoms, ascending.
Row | SMILES | Potency
18 | Nc1ccncc1Cl | inconclusive: 0.631 µM [inhibitor, full curve, poor fit]
12 | CC1(C)C(c2ccccc2)=NC(c2cccnc2)=[N+]1[O-] | inconclusive: 15.8 µM [inhibitor, partial curve, poor fit]
8 | S=c1[nH]nc(-c2ccco2)n1-c1cccc2ccccc12 | inconclusive: 6.31 µM [inhibitor, partial curve, poor fit]
9 | O=c1c2ccccc2nc(Cc2ccccc2)n1-c1ccccc1 | inconclusive: 100 µM [inhibitor, single point]
3 | COC(=O)C1=C(N)OC(C)=C(C(C)=O)C12C(=O)N(C)c1ccccc12 (configuration not stated) | inconclusive: 100 µM [inhibitor, single point]
11 | O=C(O)c1ccc2c(c1)C1C(Cl)C(Sc3ccccc3[N+](=O)[O-])CC1C(c1cccc([N+](=O)[O-])c1)N2 (configuration not stated) | inconclusive: 12.6 µM [inhibitor, full curve, poor fit]
7 | CC(=O)O[C@@]12CO[C@@H]1C[C@H](OC1OCC(O)C(O)C1O)[C@@]1(C)C(=O)[C@H](O)C3=C(C)[C@@H](OC(=O)[C@H](O)[C@@H](NC(=O)c4ccccc4)c4ccccc4)C[C@@](O)([C@@H](OC(=O)c4ccccc4)C12)C3(C)C (some centres not stated) | inconclusive: 89.1 µM [inhibitor, single point]

(listing goes on)

Row | SMILES | Potency
20 | CCc1ccc(N(CC)C(=O)CCn2cnc3onc(-c4ccc(F)cc4)c3c2=O)cc1 | inconclusive: 89.1 µM [inhibitor, single point]
21 | N#Cc1c(Cl)c(Cl)c(Cl)c(C#N)c1Cl | active: 1.58 µM
22 | C[N+]12CCC(CC1)C(C(O)(c1ccccc1)c1cccs1)C2 (configuration not stated) | inconclusive: 89.1 µM [inhibitor, single point]
23 | [O]=[Sb]([OH])([OH])[c]1ccccc1 | active: 20 µM
24 | Cn1c(O)c(C2=NN(C(=O)CCl)C(c3ccccc3)C2)c(=O)n(C)c1=O (configuration not stated) | inconclusive: 31.6 µM [inhibitor, partial curve, poor fit]
25 | CCOc1cccc(OCC)c2c(C)[n+](CC3CCCO3)c(C)c1-2 (configuration not stated) | inconclusive: 3.98 µM [inhibitor, full curve, poor fit]
26 | CC(=O)c1ccc2c(c1)C1C(Cl)C(Sc3ccccc3[N+](=O)[O-])CC1C(C(=O)O)N2 (configuration not stated) | inconclusive: 8.91 µM [inhibitor, full curve]
27 | O=C(c1ccc(C(F)(F)F)cc1)C1CCCN(Cc2ccc(CO)o2)C1 (configuration not stated) | inconclusive: 1.58 µM [inhibitor, full curve, poor fit]
28 | O=C(CSc1nc(-c2ccc(Cl)cc2)[nH]c(=O)n1)Nc1cccc(Cl)c1 | inconclusive: 28.2 µM [inhibitor, partial curve, poor fit]
29 | CCN1C(=O)C(=C/C=C/c2ccco2)C(=O)N(CC)C1=S | inconclusive: 14.1 µM [inhibitor, partial curve, poor fit]
30 | Cn1c(=O)cc(SCC(=O)N2CCC3(CC2)OCCO3)c2ccccc21 | inconclusive: 10 µM [inhibitor, partial curve, poor fit]
31 | CCn1ncc(-c2ccnc3cc(C(=O)O)nn23)c1C | active: 35.5 µM
32 | CC(O)(CS(=O)(=O)c1cccc(C(F)(F)F)c1)C(=O)Nc1cccc(C(F)(F)F)c1 (configuration not stated) | inconclusive: 31.6 µM [inhibitor, single point]
33 | CC(C)OC(=O)Cc1ccccc1 | inconclusive: 79.4 µM [inhibitor, partial curve, poor fit]
34 | CCOC(=O)c1ccc(N2C(=O)c3[nH]nc(-c4ccccc4)c3C2c2ccc(C(C)C)cc2)cc1 (configuration not stated) | inactive
35 | CC(=O)N[C@@H]1CC[C@@]2(O)[C@H]3Cc4ccc(O)c5c4[C@@]2(CCN3CC2CC2)[C@@H]1O5 | inactive
36 | O=C1NC2NC(=O)N([N+](=O)[O-])C2N1 (configuration not stated) | inconclusive: 20 µM [inhibitor, partial curve, poor fit]
37 | Cc1ccccc1CN1Cc2cnnn2-c2ccccc2C1C#N (configuration not stated) | inconclusive: 20 µM [inhibitor, full curve, poor fit]
